# Measurements published in US11246876B2, “Anti-cancer effects of JAK2 inhibitors in combination with thalidomide derivatives and glucocorticoids” (OncoTracker, Inc., priority 2014, dated 2022).
# “Also recorded” adds a separate entry of the source. For at least one compound, name, drawing or mass did not settle the structure.
# How the values were obtained:
# [1] = system: CD36 gene expression in monocytes; assay: Quantitative PCR of monocytes co-cultured with MM cell lines; type: cell-based, human; conditions: monocytes co-cultured with RPMI1640, U266 and MM1s; low concentration (IC20); listed as JAK2 inhibitor
# MM1s cells = assay: Cell proliferation MTS assay, MM1s cells; type: cell-based; conditions: ruxolitinib at several concentrations, 48 hours
# RPMI8226 cells = assay: Cell proliferation MTS assay, RPMI8226 cells; type: cell-based, human; conditions: ruxolitinib at several concentrations, 48 hours
# M2 and M1 macrophages = assay: Flow cytometric analysis of M1/M2 macrophages in LAGκ2 MM animal model; type: in vivo, SCID mice
# [2] = system: U266 multiple myeloma tumor cells; assay: Cell proliferation MTS assay, U266 cells; conditions: ruxolitinib at several concentrations, 48 hours
# [3] = system: primary multiple myeloma bone marrow tumor cells; assay: Cell proliferation MTS assay, primary multiple myeloma bone marrow cells; type: cell-based, human; conditions: primary MMBM cells; ruxolitinib alone, several concentrations, 48 hours
# LAGκ-2 tumors = assay: LAGκ-2 human multiple myeloma xenograft in SCID mice; type: in vivo; conditions: summary statement
# Procedure: The combination of the JAK2 inhibitor ruxolitinib with lenalidomide and dexamethasone was tested on human multiple myeloma tumors in vivo. The anti-multiple myeloma effects of ruxolitinib were evaluated with mice bearing either LAGκ-1A (bortezomib- and melphalan-sensitive) or LAGκ-2 (bortezomib- and melphalan-resistant) tumors, both of which were originally derived from bone marrow biopsies from multiple myeloma patients. These tumors closely resemble human multiple myeloma and have been passaged through multiple generations of mice with consistent growth and chemoresistance patterns.
# In another experiment, mice received an intramuscular implantation of LAGκ-2 tumor tissue, and then underwent treatment with vehicle control, ruxolitinib, dexamethasone, lenalidomide, ruxolitinib and dexamethasone, ruxolitinib and lenalidomide, dexamethasone and lenalidomide, or ruxolitinib with lenalidomide and dexamethasone, as described above (see FIG. 8B). Similar to the effects on LAGκ-1A tumors, when ruxolitinib, lenalidomide, or dexamethasone was administered individually, LAGκ-2 tumor growth was not inhibited compared to control.
# Six- to 8-week-old male severe combined immunodeficient (SCID) mice were obtained from the Jackson Laboratory (Bar Harbor, Me., USA) and maintained in a specific pathogen-free area in our animal resources facility. […]
# [4] = ruxolitinib 1.5 mg/kg vs untreated group
# [5] = ruxolitinib 1.5 mg/kg vs untreated group, n=5
structure (smiles),measurement,setting,value
N#CC[C@H](C1CCCC1)n1cc(-c2ncnc3[nH]ccc23)cn1 [ruxolitinib],CD36 gene expression (quantitative PCR),[1],inhibited; also recorded: reduced
same,viability (MTS assay),MM1s cells,concentration-dependent inhibition of viability
same,viability (MTS assay),RPMI8226 cells,concentration-dependent inhibition of viability
same,percentage of M1 (CD86+) macrophages,M2 and M1 macrophages; [4],not changed; also recorded: increased
same,percentage of M1 (iNOS+) macrophages,M2 and M1 macrophages; [4],not changed
same,percentage of M2 (ARG1+) macrophages,M2 and M1 macrophages; [5],significantly decreased
same,percentage of M2 (CD36+) macrophages,M2 and M1 macrophages; [5],significantly decreased; also recorded: markedly decreased
same,M2 macrophage polarization in MM,M2 and M1 macrophages; summary statement,significantly decreased
same,viability (MTS assay),[2],concentration-dependent inhibition of viability
same,viability (MTS assay),[3],only mildly inhibited the viability
same,tumor growth in MM,LAGκ-2 tumors,significantly decreased
